No constants are given. Whether binding was seen depends on the method and setting. Binding seen in cells or lysates may run through a third protein. Some entries that bind do so weakly or less than the wild type. For part of these data: Where a sequence is shown, tags or fusion partners need not be part of it.
T1: GFP-FBP17 wild type (UniProt Q96RU3)
T1 sequence: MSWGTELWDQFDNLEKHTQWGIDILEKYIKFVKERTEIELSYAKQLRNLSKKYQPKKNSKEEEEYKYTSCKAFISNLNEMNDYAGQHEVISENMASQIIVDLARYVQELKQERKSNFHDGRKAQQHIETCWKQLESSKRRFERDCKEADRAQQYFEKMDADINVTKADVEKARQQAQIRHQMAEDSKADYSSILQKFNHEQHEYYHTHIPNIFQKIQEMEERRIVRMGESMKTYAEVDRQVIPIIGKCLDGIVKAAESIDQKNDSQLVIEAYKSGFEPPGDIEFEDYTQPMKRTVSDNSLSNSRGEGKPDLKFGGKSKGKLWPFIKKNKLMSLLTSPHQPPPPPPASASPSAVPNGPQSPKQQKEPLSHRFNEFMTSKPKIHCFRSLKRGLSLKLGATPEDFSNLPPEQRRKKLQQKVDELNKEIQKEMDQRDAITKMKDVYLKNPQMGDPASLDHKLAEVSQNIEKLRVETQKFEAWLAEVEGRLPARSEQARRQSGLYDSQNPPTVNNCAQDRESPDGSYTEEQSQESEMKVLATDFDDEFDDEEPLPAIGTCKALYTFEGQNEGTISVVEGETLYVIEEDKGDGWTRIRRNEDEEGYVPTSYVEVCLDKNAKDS

The chains behind the UniProt entries cited, without tags or fusion partners.
UniProt P00520: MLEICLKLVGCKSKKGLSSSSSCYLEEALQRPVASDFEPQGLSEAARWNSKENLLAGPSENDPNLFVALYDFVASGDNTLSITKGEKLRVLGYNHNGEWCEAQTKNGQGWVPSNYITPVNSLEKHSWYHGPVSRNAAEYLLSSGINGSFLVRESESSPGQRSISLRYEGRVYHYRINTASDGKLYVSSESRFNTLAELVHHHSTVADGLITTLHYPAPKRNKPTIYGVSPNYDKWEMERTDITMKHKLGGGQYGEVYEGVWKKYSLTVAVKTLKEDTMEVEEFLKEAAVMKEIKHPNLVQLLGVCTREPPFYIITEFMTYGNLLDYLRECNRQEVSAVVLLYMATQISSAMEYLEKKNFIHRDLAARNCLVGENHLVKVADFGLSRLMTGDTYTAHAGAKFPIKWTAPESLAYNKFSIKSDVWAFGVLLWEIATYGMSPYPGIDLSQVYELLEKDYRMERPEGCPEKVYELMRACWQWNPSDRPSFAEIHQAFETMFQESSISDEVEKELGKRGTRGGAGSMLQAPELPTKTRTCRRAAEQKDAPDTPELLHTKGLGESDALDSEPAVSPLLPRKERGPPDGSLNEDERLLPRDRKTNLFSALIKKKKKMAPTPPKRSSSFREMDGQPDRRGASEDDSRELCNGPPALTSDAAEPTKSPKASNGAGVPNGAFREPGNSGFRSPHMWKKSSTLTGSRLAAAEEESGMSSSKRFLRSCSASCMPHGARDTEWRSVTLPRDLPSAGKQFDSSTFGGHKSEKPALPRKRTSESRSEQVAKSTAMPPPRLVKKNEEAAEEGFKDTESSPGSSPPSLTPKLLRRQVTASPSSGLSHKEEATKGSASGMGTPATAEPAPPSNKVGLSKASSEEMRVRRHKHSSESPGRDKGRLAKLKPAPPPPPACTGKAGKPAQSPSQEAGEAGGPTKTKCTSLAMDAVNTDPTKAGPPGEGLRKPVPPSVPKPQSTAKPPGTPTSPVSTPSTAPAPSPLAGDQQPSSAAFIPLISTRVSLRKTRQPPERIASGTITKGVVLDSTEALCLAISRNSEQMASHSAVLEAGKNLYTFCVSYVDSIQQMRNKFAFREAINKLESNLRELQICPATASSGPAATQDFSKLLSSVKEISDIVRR
UniProt P00519: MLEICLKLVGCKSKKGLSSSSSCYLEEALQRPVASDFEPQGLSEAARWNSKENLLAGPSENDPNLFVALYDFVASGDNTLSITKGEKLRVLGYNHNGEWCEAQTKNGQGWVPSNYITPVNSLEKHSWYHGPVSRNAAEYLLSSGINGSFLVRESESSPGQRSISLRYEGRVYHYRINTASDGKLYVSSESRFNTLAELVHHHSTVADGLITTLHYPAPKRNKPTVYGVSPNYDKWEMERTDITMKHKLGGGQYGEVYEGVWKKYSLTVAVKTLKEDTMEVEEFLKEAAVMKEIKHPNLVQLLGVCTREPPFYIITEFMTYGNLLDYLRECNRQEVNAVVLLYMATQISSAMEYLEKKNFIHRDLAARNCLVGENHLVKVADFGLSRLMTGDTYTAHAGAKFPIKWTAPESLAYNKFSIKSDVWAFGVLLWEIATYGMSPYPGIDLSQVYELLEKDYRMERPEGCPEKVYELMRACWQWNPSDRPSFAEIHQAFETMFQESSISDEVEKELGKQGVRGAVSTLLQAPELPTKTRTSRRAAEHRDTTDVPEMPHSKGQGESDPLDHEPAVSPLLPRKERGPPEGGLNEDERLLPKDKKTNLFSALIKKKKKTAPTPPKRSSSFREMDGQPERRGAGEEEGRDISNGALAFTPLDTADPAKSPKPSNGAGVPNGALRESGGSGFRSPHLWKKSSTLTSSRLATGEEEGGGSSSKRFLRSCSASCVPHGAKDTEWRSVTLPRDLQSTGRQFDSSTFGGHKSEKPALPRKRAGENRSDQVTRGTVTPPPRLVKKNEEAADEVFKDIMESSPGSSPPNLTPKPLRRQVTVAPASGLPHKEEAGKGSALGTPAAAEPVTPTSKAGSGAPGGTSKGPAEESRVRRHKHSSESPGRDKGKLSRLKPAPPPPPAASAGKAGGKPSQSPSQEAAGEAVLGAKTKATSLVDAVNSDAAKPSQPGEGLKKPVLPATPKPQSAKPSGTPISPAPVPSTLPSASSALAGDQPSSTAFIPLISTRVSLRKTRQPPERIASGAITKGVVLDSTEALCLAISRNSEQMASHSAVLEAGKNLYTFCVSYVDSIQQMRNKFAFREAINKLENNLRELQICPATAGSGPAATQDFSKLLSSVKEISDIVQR


Columns and labels:
GFP-FBP17 wild type = target: T1, GFP-FBP17 wild type; assay: co-IP; GFP-tagged FBP17 wild type or 3YE expressed in cells together with c-Myc-FBP17; GFP versions immunoprecipitated and bound c-Myc-FBP17 quantified
GFP-c-Abl = GFP-c-Abl (UniProt P00520); assay: co-IP; GFP-c-Abl (or GFP control) and Myc-FBP17 transfected into 293T cells; c-Abl immunoprecipitated with anti-GFP antibody; immunoblots of immunoprecipitates and whole-cell lysates
endogenous c-Abl = endogenous c-Abl (UniProt P00519); assay: co-IP; endogenous c-Abl immunoprecipitated, endogenous FBP17 identified in the IP by immunoblot; two control antibodies

Row | binding (GFP-FBP17 wild type) | binding (GFP-c-Abl) | binding (endogenous c-Abl) | Binder
1 | binds | binds | – | Myc-FBP17 (protein, UniProt Q96RU3 1-617) MSWGTELWDQFDNLEKHTQWGIDILEKYIKFVKERTEIELSYAKQLRNLSKKYQPKKNSKEEEEYKYTSCKAFISNLNEMNDYAGQHEVISENMASQIIVDLARYVQELKQERKSNFHDGRKAQQHIETCWKQLESSKRRFERDCKEADRAQQYFEKMDADINVTKADVEKARQQAQIRHQMAEDSKADYSSILQKFNHEQHEYYHTHIPNIFQKIQEMEERRIVRMGESMKTYAEVDRQVIPIIGKCLDGIVKAAESIDQKNDSQLVIEAYKSGFEPPGDIEFEDYTQPMKRTVSDNSLSNSRGEGKPDLKFGGKSKGKLWPFIKKNKLMSLLTSPHQPPPPPPASASPSAVPNGPQSPKQQKEPLSHRFNEFMTSKPKIHCFRSLKRGLSLKLGATPEDFSNLPPEQRRKKLQQKVDELNKEIQKEMDQRDAITKMKDVYLKNPQMGDPASLDHKLAEVSQNIEKLRVETQKFEAWLAEVEGRLPARSEQARRQSGLYDSQNPPTVNNCAQDRESPDGSYTEEQSQESEMKVLATDFDDEFDDEEPLPAIGTCKALYTFEGQNEGTISVVEGETLYVIEEDKGDGWTRIRRNEDEEGYVPTSYVEVCLDKNAKDS
2 | – | – | binds | endogenous FBP17 (protein, UniProt Q96RU3 1-617) MSWGTELWDQFDNLEKHTQWGIDILEKYIKFVKERTEIELSYAKQLRNLSKKYQPKKNSKEEEEYKYTSCKAFISNLNEMNDYAGQHEVISENMASQIIVDLARYVQELKQERKSNFHDGRKAQQHIETCWKQLESSKRRFERDCKEADRAQQYFEKMDADINVTKADVEKARQQAQIRHQMAEDSKADYSSILQKFNHEQHEYYHTHIPNIFQKIQEMEERRIVRMGESMKTYAEVDRQVIPIIGKCLDGIVKAAESIDQKNDSQLVIEAYKSGFEPPGDIEFEDYTQPMKRTVSDNSLSNSRGEGKPDLKFGGKSKGKLWPFIKKNKLMSLLTSPHQPPPPPPASASPSAVPNGPQSPKQQKEPLSHRFNEFMTSKPKIHCFRSLKRGLSLKLGATPEDFSNLPPEQRRKKLQQKVDELNKEIQKEMDQRDAITKMKDVYLKNPQMGDPASLDHKLAEVSQNIEKLRVETQKFEAWLAEVEGRLPARSEQARRQSGLYDSQNPPTVNNCAQDRESPDGSYTEEQSQESEMKVLATDFDDEFDDEEPLPAIGTCKALYTFEGQNEGTISVVEGETLYVIEEDKGDGWTRIRRNEDEEGYVPTSYVEVCLDKNAKDS

— article PMC6925243
